Laboratory results as given in the supplement of paper PMC8728848.
The other results are listed elsewhere or left out.

Tests used:
Test in all cases: glycan array binding signal (z-score within array); higher = stronger binding
Details in all cases: glycan notation: IUPAC condensed, linker removed
[1] = target: Fuc(a1-2)Gal
How it was run: (§1)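 Negative Z-scores can be read as non-binding. The Z-score is calculated within each array and then averaged across arrays of one protein sequence at different concentrations or buffers and across linkers. Arrays, 3228 in all, were curated from the Consortium for Functional Glycomics database and kept only where the protein sequence was available.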

[2] = target: Fuc(a1-2)Gal(b1-3)GalNAc
How it was run: as §1

[3] = target: Fuc(a1-2)Gal(b1-3)GalNAc(a1-3)[Fuc(a1-2)]Gal(b1-4)Glc
How it was run: as §1

[4] = target: Fuc(a1-2)Gal(b1-3)GalNAc(a1-3)[Fuc(a1-2)]Gal(b1-4)GlcNAc
How it was run: as §1

[5] = target: Fuc(a1-2)Gal(b1-3)GalNAc(b1-3)Gal
How it was run: as §1

[6] = target: Fuc(a1-2)Gal(b1-3)GalNAc(b1-3)Gal(a1-4)Gal(b1-4)Glc
How it was run: as §1

[7] = target: Fuc(a1-2)Gal(b1-3)GalNAc(b1-4)[Neu5Ac(a2-3)]Gal(b1-4)Glc
How it was run: as §1

[8] = target: Fuc(a1-2)Gal(b1-3)GlcNAc
How it was run: as §1

[9] = target: Fuc(a1-2)Gal(b1-3)GlcNAc(b1-2)Man(a1-3)[Fuc(a1-2)Gal(b1-3)GlcNAc(b1-2)Man(a1-6)]Man(b1-4)GlcNAc(b1-4)GlcNAc
How it was run: as §1

[10] = target: Fuc(a1-2)Gal(b1-3)GlcNAc(b1-2)Man(a1-3)[Fuc(a1-2)Gal(b1-3)GlcNAc(b1-2)Man(a1-6)]Man(b1-4)GlcNAc(b1-4)[Fuc(a1-6)]GlcNAc
How it was run: as §1

[11] = target: Fuc(a1-2)Gal(b1-3)GlcNAc(b1-3)Gal(b1-4)Glc
How it was run: as §1

[12] = target: Fuc(a1-2)Gal(b1-3)GlcNAc(b1-3)GalNAc
How it was run: as §1

[13] = target: Fuc(a1-2)Gal(b1-3)GlcNAc(b1-3)[Fuc(a1-2)Gal(b1-3)GlcNAc(b1-6)]GalNAc
How it was run: as §1

[14] = target: Fuc(a1-2)Gal(b1-3)GlcNAc(b1-3)[Gal(b1-4)GlcNAc(b1-6)]Gal(b1-4)Glc
How it was run: as §1

[15] = target: Fuc(a1-2)Gal(b1-3)GlcNAc(b1-3)[Neu5Ac(a2-6)Gal(b1-4)GlcNAc(b1-6)]Gal(b1-4)Glc
How it was run: as §1

[16] = target: Fuc(a1-2)Gal(b1-3)GlcNAc6S
How it was run: as §1

[17] = target: Fuc(a1-2)Gal(b1-3)[Fuc(a1-4)]GlcNAc
How it was run: as §1

[18] = target: Fuc(a1-2)Gal(b1-3)[Fuc(a1-4)]GlcNAc(b1-2)Man(a1-3)[Fuc(a1-2)Gal(b1-3)[Fuc(a1-4)]GlcNAc(b1-2)Man(a1-3)]Man(b1-4)GlcNAc(b1-4)GlcNAc
How it was run: as §1

[19] = target: Fuc(a1-2)Gal(b1-3)[Fuc(a1-4)]GlcNAc(b1-2)Man(a1-3)[Fuc(a1-2)Gal(b1-3)[Fuc(a1-4)]GlcNAc(b1-2)Man(a1-6)]Man(b1-4)GlcNAc(b1-4)[Fuc(a1-6)]GlcNAc(b1-4)[Fuc(a1-6)]GlcNAc
How it was run: as §1

[20] = target: Fuc(a1-2)Gal(b1-3)[Fuc(a1-4)]GlcNAc(b1-3)[Fuc(a1-3)[Gal(b1-4)]GlcNAc(b1-6)]Gal(b1-4)Glc
How it was run: as §1

[21] = target: Fuc(a1-2)Gal(b1-3)[Fuc(a1-4)]GlcNAc(b1-3)[Gal(b1-4)GlcNAc(b1-6)]Gal(b1-4)Glc
How it was run: as §1

[22] = target: Fuc(a1-2)Gal(b1-4)Glc
How it was run: as §1

[23] = target: Fuc(a1-2)Gal(b1-4)Glc6S
How it was run: as §1

[24] = target: Fuc(a1-2)Gal(b1-4)GlcNAc
How it was run: as §1

[25] = target: Fuc(a1-2)Gal(b1-4)GlcNAc(b1-2)Man
How it was run: as §1

[26] = target: Fuc(a1-2)Gal(b1-4)GlcNAc(b1-2)Man(a1-3)[Fuc(a1-2)Gal(b1-4)GlcNAc(b1-2)Man(a1-6)]Man(b1-4)GlcNAc(b1-4)GlcNAc
How it was run: as §1

[27] = target: Fuc(a1-2)Gal(b1-4)GlcNAc(b1-2)Man(a1-3)[Fuc(a1-2)Gal(b1-4)GlcNAc(b1-2)Man(a1-6)]Man(b1-4)GlcNAc(b1-4)[Fuc(a1-6)]GlcNAc
How it was run: as §1

[28] = target: Fuc(a1-2)Gal(b1-4)GlcNAc(b1-2)[Fuc(a1-2)Gal(b1-4)GlcNAc(b1-4)]Man(a1-3)[Fuc(a1-2)Gal(b1-4)GlcNAc(b1-2)Man(a1-6)]Man(b1-4)GlcNAc(b1-4)GlcNAc
How it was run: as §1

[29] = target: Fuc(a1-2)Gal(b1-4)GlcNAc(b1-3)Gal(b1-4)GlcNAc
How it was run: as §1

[30] = target: Fuc(a1-2)Gal(b1-4)GlcNAc(b1-3)Gal(b1-4)GlcNAc(b1-2)Man(a1-3)[Fuc(a1-2)Gal(b1-4)GlcNAc(b1-3)Gal(b1-4)GlcNAc(b1-2)Man(a1-6)]Man(b1-4)GlcNAc(b1-4)GlcNAc
How it was run: as §1

B1: PX14343F-bfa-562-20-562 (Bacteroides fragilis) (protein)
chain: CDDFLDSFPQDTVTNENFWKSKEDADKVLVDIYASLLPKDAIFFDEAMSDNAYLVWDWWGGAQQVANGSYTTSGEIPTNRWNGSYEVIRKCWFLLEGIEKIEDISEQDKNKIIGETYFMLAYNYYVLTSYFGDVPLVTKTLAIPESKQLVRTPKAEVVDYAINKLKEAAVMLEGLSQEKGRVTADACRFLIARMYLYNGDYSNVLETVKLLEGKYQLYREGDTPYEDLFSGVAENSCEVILSVVCDKRVGEIYTSHGGNGIMLLKGITGEDPYRGVTPSGSLVDAYPMADGRLIHEAGSSYDPKKPYEGRDPRFYQSIVYPTGQIKYLDVETGTVKERLYDPEDPTTVPEHQYNYSQPSATGYMWNKYIDYSVYAMNSVWDCTNDIIVFRYADVLLMKAEALLQTKGESAKEEVCNLIDQLRDRCSCGRVHRENYNSKDELMELLKNERRIELANEGLRYMDLIRWKDAEKNTIVTGVGLTGQMYGAYMRKDGVGKDDKTVDVDNTPRRYIETRYFNASKGYLFPIPQKERDLNPNLTQNPNW
glycan array binding signal (z-score) [1]: -0.039
glycan array binding signal (z-score) [2]: -0.297
glycan array binding signal (z-score) [3]: 0.234
glycan array binding signal (z-score) [4]: -0.228
glycan array binding signal (z-score) [5]: -0.261
glycan array binding signal (z-score) [6]: -0.467
glycan array binding signal (z-score) [7]: 0.115
glycan array binding signal (z-score) [8]: 0.17
glycan array binding signal (z-score) [9]: 0.45
glycan array binding signal (z-score) [10]: 0.412
glycan array binding signal (z-score) [11]: -0.008
glycan array binding signal (z-score) [12]: 0.411
glycan array binding signal (z-score) [13]: -0.121
glycan array binding signal (z-score) [14]: 0.343
glycan array binding signal (z-score) [15]: -0.007
glycan array binding signal (z-score) [16]: -0.524
glycan array binding signal (z-score) [17]: -0.089
glycan array binding signal (z-score) [18]: -0.293
glycan array binding signal (z-score) [19]: -0.286
glycan array binding signal (z-score) [20]: -0.624
glycan array binding signal (z-score) [21]: 0.849
glycan array binding signal (z-score) [22]: -0.391
glycan array binding signal (z-score) [23]: 0.255
glycan array binding signal (z-score) [24]: -0.367
glycan array binding signal (z-score) [25]: -0.214
glycan array binding signal (z-score) [26]: 0.867
glycan array binding signal (z-score) [27]: 0.3
glycan array binding signal (z-score) [28]: -0.23
glycan array binding signal (z-score) [29]: -0.56
glycan array binding signal (z-score) [30]: 1.2
